Measured values published in article PMC10163288.
The list shows a part of the results.

B1: il10ra_site1_normal_mot_HHH_b2_04679_000000194_0001_21_38_H_._HHH_b1_06097_af2_0001_0000300026_0000001_0 (protein)
chain: SSSSDEEEERIEELLEELKRLIEEGDFQKFYRLSREVIELIHELNNEELAQILLELLREAFSSSS
B2: il10ra_site1_sap_15_mot_HHH_b1_02665_000000293_0001_1_18_H_._HHH_b1_05087_0001_0000300019_0000001_0_0001_af2pred_0001 (protein)
chain: SSSSDELQERAEELLEEAEERNDEEAAKLAKSVKYAVELAEKLGDPERAKLALRDLEADLSSSSS
B3: il10ra_site1_sap_18_mot_HHH_b1_04818_af2_000000063_0001_42_55_H_._HHH_b1_04225_af2_0002_0000100001_0000002_0_0001 (protein)
chain: SSSSDETEEVAELMREAVELDHNGDKEEAERVAREALELAEQLNNDVLRIQAEYLEKLIGSSSSS
B4: il10ra_site1_sap_19_mot_HHH_b1_05357_000000034_0001_23_39_H_._HHH_b1_06663_0001_0000100001_0000001_0_0001_af2pred_0001 (protein)
chain: SSSSSEVEQEVLRLLREASRAFIDGDPEEARKLLEQAERLAEEYNDEEAEELVKAVKEKISSSSS
B5: il10ra_site1_normal_mot_49468d6c54d8157f7969f91124172a68_0001_af2_000000173_0001_37_51_H_._HHH_b1_02831_0001_0000200008_0000002_0_af2pred_dldesign_0_af2pred (protein)
chain: SSSSEEEVHKVEVGFKIAKESKSKIALENLIQYAKELYEKTKDERVKEILEKAEKELKELESSSS
B6: il10ra_site1_normal_mot_HHH_b2_02262_af2_000000007_0001_40_53_H_._HHH_b2_05506_0001_0000200012_0000002_0 (protein)
chain: SSSSEEERLEKLLEEIEELIKEGDIEEALQVLWELVKLAAELNDEEILQKVLRLLRELLELSSSS
B7: il10ra_site1_normal_mot_HHH_b1_04693_000000238_0001_19_36_H_._HHH_b1_00120_0001_0000500011_0000001_0 (protein)
chain: SSSSQEAYEFARRVIEEVIELERNGDPEEAERLLEQAEEFLRELGNVAALAAIEALLRLLRSSSS
B8: il10ra_site1_normal_mot_8756ee2cf497b5429c717dfc0c0bcfd6_0001_000000186_0001_1_13_H_._HHH_b2_01483_0001_0000200015_0000001_0 (protein)
chain: SSSSTEEAEEVIELIRLVAELHREGNPEEAREVLERAEEIAREINNDVALAQIEYLERLLDSSSS
B9: il10ra_site1_sap_11_mot_ems_3hM_2751_000000089_0001_24_43_H_._HHH_b1_06082_0001_0000100002_0000002_0_0001 (protein)
chain: SSSSSDIEELLREAEELAEEGNPEEAARLLLEALRLIYEAQDEELLRELWEVVRRVAELSSSSSS
B10: il10ra_site1_sap_22_mot_HHH_b1_05672_af2_000000246_0001_1_19_H_._HHH_b1_02677_af2_0001_0000900031_0000001_0_0001 (protein)
chain: SSSSEEERVVELMFEAVRLLANGNPEEAEKVLEEAKELAEELNDEELQRYVEIALHFVRAHSSSS
B11: il10ra_site1_sap_23_mot_HHH_b2_00475_000000107_0001_44_57_H_._HHH_b1_00662_0001_0000800048_0000001_0_0001_af2pred_0001 (protein)
chain: SSSDETKERVEELLEEVEELIRQGNEEEARKVLLEALLVAAKGEDEEAFRLVLKLYRRLERSSSS
B12: il10ra_site1_sap_15_mot_HHH_b1_00999_000000080_0001_41_55_H_._HHH_b2_00528_0001_0000200007_0000001_0_0001_af2pred_0001 (protein)
chain: SSSSSSSDERAVRILLEAAKRIDDEERVRLSLRQAKLLAELANDPELEKLVEEVEEELSSSSSSS
B13: il10ra_site1_sap_14_mot_8756ee2cf497b5429c717dfc0c0bcfd6_0001_000000186_0001_1_13_H_._HHH_b1_08668_af2_0001_0000100005_0000001_0_0001 (protein)
chain: SSSSDAEEEAQELLEEAERLLEEGDRERFARVVQEALRAAFQASDEEIMQALWRLVARAKSSSSS
B14: il10ra_site1_sap_14_mot_HHH_b2_05207_000000229_0001_1_19_H_._HHH_b1_00008_af2_0001_0000200016_0000001_0_0001_af2pred_0001 (protein)
chain: SSSSDEEEEVFKLVAKALILADRLGDEETSRRLFELLAKAHATNDPELFEEAEELAREILGSSSS
B15: il10ra_site1_sap_19_mot_HHH_b1_04704_af2_000000076_0001_43_57_H_._HHH_b1_02547_af2_0001_0000500019_0000002_0_0001 (protein)
chain: SSSSSRERIVELLREAFRLALRGNPEEAKRVLEEAEELAEEAGNPDALRMVEMLLRALENSSSSS
B16: il10ra_site1_normal_mot_HHH_b1_00456_000000263_0001_1_17_H_._HHH_b1_04486_af2_0001_0000400024_0000001_0_af2pred_dldesign_0_af2pred (protein)
chain: SSSSDPEAEFYNAYTTAYSLAKEKKDEETVEELIELRKRWLATRDPSCLERVKAILEKLKSSSSS
B17: il10ra_site1_sap_18_mot_HHH_b2_00816_af2_000000077_0001_1_19_H_._HHH_b1_04432_af2_0001_0000400023_0000001_1_0001 (protein)
chain: SSSSSTQEVARRSAKFLLEAAKQIDDDEYVRLTLRFAKLSAEAVNDEELKEEIEEVIEELSSSSS
B18: il10ra_site1_sap_15_mot_8756ee2cf497b5429c717dfc0c0bcfd6_0001_000000186_0001_1_13_H_._HHH_b2_01574_0001_0000100003_0000001_0_0001 (protein)
chain: SSSSDEEEEELRELLREVKELLERGDPRRAARVAQELLRLIYRLRDEEALQELWRLIAERGSSSS
B19: il10ra_site1_sap_25_mot_HHH_b2_03220_af2_000000223_0001_23_40_H_._HHH_b1_07903_af2_0001_0000500024_0000002_0_0001 (protein)
chain: SSSSSDEEEELEELLEEVERAIKEGDEERALELIQEALRIVFQLGDEEALRRLWRLAKSISSSSS
B20: il10ra_site1_sap_16_mot_HHH_b2_01447_af2_000000258_0001_1_20_H_._HHH_b1_04646_0001_0000200011_0000001_0_0001 (protein)
chain: SSSSSEAHDELYELLERALEARAEGNPEEAEELLEEVLELARQLNDFIFVYSAEQLLKQLRSSSS
B21: il10ra_site1_normal_mot_8756ee2cf497b5429c717dfc0c0bcfd6_0001_000000186_0001_1_13_H_._HHH_b1_04603_af2_0001_0000300020_0000001_1 (protein)
chain: SSSSSEEVYELIREVAKLLRDGDKEEAKELLEEAEELAKELGNDVLLAQLEYLQEQLEQGSSSSS
B22: il10ra_site1_sap_25_mot_HHH_b2_06857_af2_000000179_0001_42_54_H_._HHH_b1_03840_af2_0001_0000100005_0000001_0_0001 (protein)
chain: SSSDERDQVYRLIKEALELMHRGNPEEAKKVLEEAEELAEELNSRVMRKIIEFLLRQIEETSSSS
B23: il10ra_site1_sap_15_mot_HHH_b1_02648_000000074_0001_1_19_H_._HHH_b1_03222_af2_0001_0000100006_0000002_0_0001 (protein)
chain: SSSSDEENEEALELVLEAVRLALRGDPEEARKVLEEALELAEEANNERLARIIEDMLKALHSSSS
B24: il10ra_site1_sap_7_mot_HHH_b2_02690_000000247_0001_1_16_H_._HHH_b2_04358_0001_0000700065_0000001_0_0001 (protein)
chain: SSSDSAREMYELSRRIAELIAQGDKEEAEKLLEELEELAEEENDPIIRFLVELLRRMIENISSSS

target: il10ra, Q13651; assay: yeast display titration

Apparent Kd, inactive:
B1 no binding seen, B2 no binding seen, B3 no binding seen, B4 no binding seen, B5 no binding seen, B6 no binding seen, B7 no binding seen, B8 no binding seen, B9 no binding seen, B10 no binding seen, B11 no binding seen, B12 no binding seen, B13 no binding seen, B14 no binding seen, B15 no binding seen, B16 no binding seen, B17 no binding seen, B18 no binding seen, B19 > 380 nM, B20 no binding seen, B21 no binding seen, B22 no binding seen, B23 no binding seen, B24 no binding seen
